Values from PubChem BioAssay AID504804 (Drosophila RNAi Screening Center, 2011)

- Screen: 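dsRNAs that improve Kc cell survival under doxorubicin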 (primary screen)
- Cell system: Drosophila Kc cells
- Reagent: long dsRNA against Drosophila genes, 0.5 µg dsRNA per well
- Timing: 96 h (48 h knock-down, then 48 h drug)
- Challenge: doxorubicin 5 µg/ml for 48 h, added 48 h after dsRNA
- Read-out: 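Viability measured as cellular ATP by luminescence after 48 h knock-down then 48 h doxorubicin at 5 µg/ml; unnormalised plate counts for each replicate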
- Scale: raw ATP luminescence: higher = more viable cells, protection from doxorubicin
- Hit rule: 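z-score of 2 or more over plate mean in both duplicates, retained only when retests and separate dsRNAs confirm the protection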
In all, the deposit lists about 19,000 reagents; this is an unselected part of those that have a named target and a result. In the full data, 47 (0.25%) were called active. 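Signals are raw, not normalised; exact z-scores behind calls not deposited; actives needed confirmation, so some wells reaching 2 SD are inactive.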 Unmarked entries are inactive. A plus sign joins genes that one reagent is predicted to hit.

CG13476 [DRSC10019] showed raw ATP luminescence, replicate 1 = 39417; raw ATP luminescence, replicate 2 = 30560.
CG9826 [DRSC04570] showed raw ATP luminescence, replicate 1 = 52327; raw ATP luminescence, replicate 2 = 70893.
chic (chickadee) [DRSC03507] gave raw ATP luminescence, replicate 1 = 35907; raw ATP luminescence, replicate 2 = 41143.
Knock-down of Mst98Cb (Male-specific RNA 98Cb) [DRSC16750] gave: raw ATP luminescence, replicate 1 = 81560; raw ATP luminescence, replicate 2 = 54920.
unc80 (uncoordinated 80) [DRSC15329] scored raw ATP luminescence, replicate 1 = 36240; raw ATP luminescence, replicate 2 = 43470.
With knock-down of CG45002 [DRSC20144] the results were raw ATP luminescence, replicate 1 = 3.06e5; raw ATP luminescence, replicate 2 = 3.19e5.
For Nrx-IV (Neurexin IV) [DRSC11238], the entry reads raw ATP luminescence, replicate 1 = 35843; raw ATP luminescence, replicate 2 = 28430.
Adh + Adhr [DRSC01862] showed raw ATP luminescence, replicate 1 = 98753; raw ATP luminescence, replicate 2 = 72410.
With knock-down of Adh + Adhr [DRSC01863], the record shows raw ATP luminescence, replicate 1 = 51360; raw ATP luminescence, replicate 2 = 52387.
Silencing of CG13024 [DRSC09904] resulted in: raw ATP luminescence, replicate 1 = 68437; raw ATP luminescence, replicate 2 = 57830.
Knock-down of CG17470 [DRSC02621] came out at: raw ATP luminescence, replicate 1 = 87937; raw ATP luminescence, replicate 2 = 63503.
Silencing of CG5235 [DRSC10494] resulted in: raw ATP luminescence, replicate 1 = 40163; raw ATP luminescence, replicate 2 = 37577.

2 entries from above, reformatted:
gene,dsRNA,"raw ATP luminescence, replicate 1","raw ATP luminescence, replicate 2"
Mst98Cb (Male-specific RNA 98Cb),DRSC16750,81560,54920
unc80 (uncoordinated 80),DRSC15329,36240,43470

Additional records:
CG34266 [DRSC08323] showed raw ATP luminescence, replicate 1 = 86450; raw ATP luminescence, replicate 2 = 83683.
Against Elp4 (Elongator complex protein 4) [DRSC02999] the deposit lists raw ATP luminescence, replicate 1 = 25673; raw ATP luminescence, replicate 2 = 28393.
CG5506 [DRSC10511] scored raw ATP luminescence, replicate 1 = 57570; raw ATP luminescence, replicate 2 = 42837.
Knock-down of Amacr (Alpha-methylacyl-CoA racemase) [DRSC03198] resulted in: raw ATP luminescence, replicate 1 = 78217; raw ATP luminescence, replicate 2 = 71997.
Depletion of CG7102 [DRSC02647] gave: raw ATP luminescence, replicate 1 = 1.07e5; raw ATP luminescence, replicate 2 = 64490.
CG7102 [DRSC03007] gave raw ATP luminescence, replicate 1 = 45357; raw ATP luminescence, replicate 2 = 77623.
With knock-down of CG33269 [DRSC10585] the results were raw ATP luminescence, replicate 1 = 69943; raw ATP luminescence, replicate 2 = 63340.
